Results are given in words; binding and its absence hold for the method and conditions named. Binding seen in cells or lysates may run through a third protein. A result given as binding can be weak or reduced; the word gives no strength. Where a sequence is shown, tags or fusion partners need not be part of it.
Experiments:
[1] = molecular target: T1, FLAG-tagged EMC6, wild type (human) (human) (UniProt Q9BV81); assay: co-IP; HEK293T cells stably expressing α1β2γ2 GABAA receptors, transiently transfected with FLAG-tagged EMC3 variants, or with FLAG-tagged EMC5 and EMC6 variants; lysate (50 mM Tris pH 7.5, 150 mM NaCl, 2 mM DDM) on anti-FLAG M2 magnetic beads overnight at 4°C; blot for α1 and FLAG; band intensity of α1 over FLAG
T1 sequence: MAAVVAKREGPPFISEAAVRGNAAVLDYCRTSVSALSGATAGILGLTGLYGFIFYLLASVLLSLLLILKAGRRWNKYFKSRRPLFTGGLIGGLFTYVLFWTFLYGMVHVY

[2] = molecular target: T2, FLAG-tagged EMC3, wild type (human) (human) (UniProt Q9P0I2); assay: as above
T2 sequence: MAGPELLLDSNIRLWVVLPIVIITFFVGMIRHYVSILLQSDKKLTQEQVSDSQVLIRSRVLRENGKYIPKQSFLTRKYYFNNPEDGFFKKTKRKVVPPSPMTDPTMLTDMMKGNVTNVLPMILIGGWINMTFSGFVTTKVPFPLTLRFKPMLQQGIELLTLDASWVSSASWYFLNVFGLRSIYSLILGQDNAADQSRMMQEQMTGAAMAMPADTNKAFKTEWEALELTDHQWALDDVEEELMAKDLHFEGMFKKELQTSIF

binding [1]: binds
binding [2]: binds
Substance: human GABAA receptor α1 subunit (HEK293T cells stably expressing α1β2γ2)

From article PMC9352529
